# From PubChem BioAssay AID504467 (National Center for Advancing Translational Sciences (NCATS), 2011)
# Among all 330,000 compounds or so, about 7,700 (2.3%) were called active. This list was built around the results that the source calls inconclusive (neither active nor inactive); the mix of calls is not that of the screen. Calls come from the whole dose curve; as a rule, active = well fitted inhibition curve with a large enough effect; inconclusive = small, poorly fitted or top-dose-only effect, or effect the other way; inactive = flat fitted curve, though single readings scatter. Potencies beside an inconclusive call are fits to weak or partial responses and may not hold up.
# Test: qHTS screen for small molecules that inhibit ELG1-dependent DNA repair in human embryonic kidney (HEK293T) cells expressing luciferase-tagged ELG1; note: nearly all actives have a fitted effect of over 55% in size
# Conditions: HEK293T ELG1-luciferase reporter, luminescence, 16 h, DNA damage induced by 5-fluorouridine; activity change, negative = inhibition: at 46.1 µM (top of the series)
# Method in brief: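 Overnight (16 hr) co-exposure of 2,000 cells/well to 5-fluorouridine and compound at 37 °C preceded detection. Luciferase was quantified via ONE-Glo luminescence; loss of signal denotes inhibition.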
# % is set by controls: 0 for no effect and ±100 for the full control effect; potency is the fitted concentration of half-maximal effect.
SMILES,Potency,"activity change, negative = inhibition"
CC(C)(C)NC(=O)NC(=O)COC(=O)c1cccc(NS(=O)(=O)c2ccc(F)c(F)c2)c1,"inconclusive: 0.082 µM [inhibitor, partial curve, poor fit]",–
CC(=C/c1ccccc1)/C=N/Nc1nc(N2CCOCC2)nc(N2CCOCC2)n1,"inconclusive: 29.1 µM [inhibitor, single point]",–
COc1cccc(/C=N/NC(=O)c2nnn(-c3nonc3N)c2C(C)C)c1OCc1ccc(F)cc1,"inconclusive: 29.1 µM [inhibitor, single point]",–
O=C(O)c1cc2c(cc1NC(=O)c1ccccc1C(F)(F)F)OCCCO2,–,inactive: 5.89%
Cc1nc(N2CCN(C)CC2)c2c(C)c(C(=O)Nc3ccc(F)cc3)sc2n1,–,inactive: -14.4%
Cn1c(=O)c2c(nc(N/N=C/c3ccc(OC(=O)c4ccco4)cc3)n2Cc2ccccc2)n(C)c1=O,active: 20.6 µM,–
O=C(O)c1cccnc1SCC(=O)N1CCCc2ccccc21,"inconclusive: 29.1 µM [activator, single point]",–
CCOC(=O)CN1C(=O)S/C(=C/c2ccc(OC)c([N+](=O)[O-])c2)C1=O,–,inactive: 14%
O=C(COc1ccc([N+](=O)[O-])cc1)Nc1ccc2c(c1)CCC2,–,inactive: 0.168%
Cc1ccc(NC(=O)c2ccccc2NC(=O)CCC(=O)O)cc1,"inconclusive: 29.1 µM [activator, single point]",–
Clc1ccc(-n2nnc(-c3nccs3)n2)cc1Cl,"inconclusive: 9.2 µM [activator, partial curve]",–
Cc1ccc(P(=O)(CSC(=N)N)c2ccc(C)cc2)cc1,"inconclusive: 29.1 µM [inhibitor, partial curve, poor fit]",–
Oc1c(CN2CCc3ccccc3C2)cc(Cl)c2cccnc12,"inconclusive: 23.1 µM [inhibitor, partial curve, poor fit]",–
CCOc1ccc(NS(=O)(=O)c2ccc(NC(=S)NC(=O)C(C)C)cc2)cc1,–,inactive: -15.1%
COc1ccc(C)cc1N/C(N)=N/c1nc(C)cc(C)n1,"inconclusive: 29.1 µM [inhibitor, single point]",–
Cn1c(SCC(=O)NCCc2ccccc2)ncc(C(=O)Nc2ccccc2)c1=O,"inconclusive: 16.4 µM [activator, single point]",–
CCC(/C=N/Nc1ccc(S(=O)(=O)N2CCCC2)cc1[N+](=O)[O-])CC,"inconclusive: 32.6 µM [inhibitor, partial curve, poor fit]",–
CN1/C(=C\C(=O)C[n+]2cccc(C(N)=O)c2)C(C)(C)c2ccccc21,–,inactive: -6.18%
CC1Cc2ccccc2N1C(=O)COc1nc2ccccc2nc1N1CCOCC1 (centres undefined),–,inactive: -2.33%

# Some of the entries so far, bar-delimited:
SMILES | Potency | activity change, negative = inhibition
O=C(O)c1cc2c(cc1NC(=O)c1ccccc1C(F)(F)F)OCCCO2 | – | inactive: 5.89%
CCOc1ccc(NS(=O)(=O)c2ccc(NC(=S)NC(=O)C(C)C)cc2)cc1 | – | inactive: -15.1%
